Test system: Raji
Assay: Antiproliferative activity against human Raji cells after 72 hrs by MTT assay
Assay type: functional, cell-based
Method in brief: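 Raji cells were kept in RPMI 1640 with 10% FBS and penicillin/streptomycin at 37 °C and 5% CO2. Log-phase cells were plated at 10000-15000 per well and exposed to serial concentrations after 24 h for 72 h. Read-out was MTT for 1-3 h, then 20% SDS overnight and absorbance at 570 nm. IC50 was calculated from growth versus untreated control, as mean ± SEM of at least three independent experiments.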

O=C(CCCCCCC(=O)Nc1ccccc1)NO [VORINOSTAT] was tested, and the IC50 was 196 nM.

From ChEMBL document CHEMBL4411315, “Discovery of Novel Dual Histone Deacetylase and Mammalian Target of Rapamycin Target Inhibitors as a Promising Strategy for Cancer Therapy” (J Med Chem, 2019)
